Data source: PubChem BioAssay AID686943 (Drosophila RNAi Screening Center, 2013)
The deposit covers about 23,000 reagents; below is a random part of those with a known target gene and a result. 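Extra replicates exist only for a retested subset of genes; insulin dose and duration not given; both raised and lowered dpERK matter.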 Names joined by + are all predicted targets of the reagent. Not all columns of the deposit are shown. Reagent sequences are not shown. Not given: the amount of reagent, the time to read-out.

Test: 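Fly genes whose loss alters ERK activation after insulin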 (primary screen)
Cells: Drosophila S2R+ haemocyte-like cells expressing YFP-tagged ERK (Rolled)
Reagent: long dsRNA against Drosophila genes
Challenge: insulin stimulation versus unstimulated cells; dose and duration not given
Measurement: 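Antibody staining for doubly phosphorylated ERK divided by ERK-YFP signal, as plate z-scores, in insulin-treated and untreated cells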
Direction: replicate 1, z-score of dpERK with insulin and replicate 2, z-score of dpERK with insulin: higher = more active ERK per ERK-YFP after insulin

CG15712 [DRSC06583] gave replicate 1, z-score of dpERK with insulin 1.48; replicate 2, z-score of dpERK with insulin 0.15.
For CG13403 [DRSC19535], the values are replicate 1, z-score of dpERK with insulin 0.2; replicate 2, z-score of dpERK with insulin 0.15.
For Tomosyn [DRSC19365], the values are replicate 1, z-score of dpERK with insulin -0.18; replicate 2, z-score of dpERK with insulin 0.28.
With knock-down of Tomosyn [DRSC19692] the results were replicate 1, z-score of dpERK with insulin 0.63; replicate 2, z-score of dpERK with insulin 0.48.
For Tomosyn [DRSC19782] the deposit lists replicate 1, z-score of dpERK with insulin 0.1; replicate 2, z-score of dpERK with insulin -0.22.
Depletion of Tomosyn [DRSC19842] came out at: replicate 1, z-score of dpERK with insulin 0.53; replicate 2, z-score of dpERK with insulin 1.2.
With knock-down of Sry-delta (Serendipity delta) [DRSC16869], the screen gave replicate 1, z-score of dpERK with insulin -0.61; replicate 2, z-score of dpERK with insulin 1.68.
Silencing of ND-MWFE (NADH dehydrogenase (ubiquinone) MWFE subunit) [DRSC06364] resulted in: replicate 1, z-score of dpERK with insulin 0.23; replicate 2, z-score of dpERK with insulin -0.78.
Silencing of gd (gastrulation-defective) [DRSC20336] resulted in: replicate 1, z-score of dpERK with insulin 0.08; replicate 2, z-score of dpERK with insulin 0.17.
Knock-down of sturkopf [DRSC08637] resulted in: replicate 1, z-score of dpERK with insulin 0.22; replicate 2, z-score of dpERK with insulin 1.38.
After knock-down of L (retired record) [DRSC05966], the screen gave replicate 1, z-score of dpERK with insulin 0.04; replicate 2, z-score of dpERK with insulin -0.6.
For L (retired record) [DRSC05967], the entry reads replicate 1, z-score of dpERK with insulin -0.81; replicate 2, z-score of dpERK with insulin -1.27.
pncr004:X (retired record) [DRSC19295] showed replicate 1, z-score of dpERK with insulin 0.22; replicate 2, z-score of dpERK with insulin 0.22.
Depletion of CG43673 + CG43672 [DRSC19452] resulted in: replicate 1, z-score of dpERK with insulin -0.16; replicate 2, z-score of dpERK with insulin -0.27.
For CG43673 + CG43672 [DRSC20108], the entry reads replicate 1, z-score of dpERK with insulin 0.2; replicate 2, z-score of dpERK with insulin 0.07.
cal1 (chromosome alignment defect 1) [DRSC15725] gave replicate 1, z-score of dpERK with insulin 0.12; replicate 2, z-score of dpERK with insulin -0.02.
With knock-down of Nep6 (Neprilysin 6) [DRSC19877], the screen gave replicate 1, z-score of dpERK with insulin -1.09; replicate 2, z-score of dpERK with insulin -1.36.
With knock-down of DIP2 (DISCO Interacting Protein 2) [DRSC08582], the screen gave replicate 1, z-score of dpERK with insulin 0.4; replicate 2, z-score of dpERK with insulin 0.86.
CG14185 [DRSC10184] scored replicate 1, z-score of dpERK with insulin 1.3; replicate 2, z-score of dpERK with insulin 0.5.
With knock-down of CG10959 [DRSC17769] the results were replicate 1, z-score of dpERK with insulin -0.32; replicate 2, z-score of dpERK with insulin 0.12.
Against Cby (Chibby) [DRSC14591], the values are replicate 1, z-score of dpERK with insulin -0.07; replicate 2, z-score of dpERK with insulin -0.19.
CG9029 [DRSC03129] gave replicate 1, z-score of dpERK with insulin -0.08; replicate 2, z-score of dpERK with insulin 0.45.
stc (shuttle craft) [DRSC03620] gave replicate 1, z-score of dpERK with insulin -0.5; replicate 2, z-score of dpERK with insulin -0.2.
Silencing of Sfxn2 (Sideroflexin 2) [DRSC10718] gave: replicate 1, z-score of dpERK with insulin -0.79; replicate 2, z-score of dpERK with insulin 0.33.
After knock-down of CG32147 [DRSC09346] the results were replicate 1, z-score of dpERK with insulin 0.99; replicate 2, z-score of dpERK with insulin -0.36.
Depletion of beat-IIIb (beaten path IIIb) [DRSC02435] gave: replicate 1, z-score of dpERK with insulin -0.41; replicate 2, z-score of dpERK with insulin 0.28.
Nipped-A [DRSC04882] gave replicate 1, z-score of dpERK with insulin 0.1; replicate 2, z-score of dpERK with insulin 0.07.
Depletion of Nipped-A [DRSC04883] resulted in: replicate 1, z-score of dpERK with insulin -2.24; replicate 2, z-score of dpERK with insulin -2.78.
Silencing of Nipped-A [DRSC04884] came out at: replicate 1, z-score of dpERK with insulin -2; replicate 2, z-score of dpERK with insulin -1.67.
Nipped-A [DRSC07738] gave replicate 1, z-score of dpERK with insulin -1.78; replicate 2, z-score of dpERK with insulin -2.61.
Silencing of Nipped-A [DRSC22386] came out at: replicate 1, z-score of dpERK with insulin -0.72; replicate 2, z-score of dpERK with insulin -0.59.
